According to PubChem BioAssay AID662 (National Center for Advancing Translational Sciences (NCATS), 2007):
Some of the results follow. The main result of the screen is listed elsewhere. These columns were measured beside it and carry no call. Compounds called inactive in the main read-out are mostly missing here. Words in brackets tell the shape of the fitted curve; partial curves, single points and poor fits give uncertain potencies.

assay: Cell signaling CRE-BLA (Fsk stim); details: CHO CRE-bla reporter (cAMP response element driving beta-lactamase), forskolin EC10, beta-lactamase ratio; measured here: 460 nm blue channel
In short: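 Forskolin analogue NKH 477 at EC10 stimulated CRE-driven beta-lactamase in CHO cells alongside compound dilution series. Beta-lactamase was measured with CCF4, excitation 405 nm, emission ratio 460/530 nm.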

Row | SMILES | AC50
1 | O=C(O)c1cc(S(=O)(=O)O)ccc1O | 25.1 µM [rising, single point]
2 | COc1ccccc1CNc1ncnc2ccc(-c3ccc4c(c3)OCO4)cc12 | 6.31 µM [rising, partial curve]
3 | Cc1cc(NC(=O)CSc2nc(C(C)C)nc3c2c(=O)n(C)c(=O)n3C)no1 | 7.94 µM [rising, partial curve]
4 | Nc1cccc2cnccc12 | 5.01 µM [falling, partial curve, poor fit]
5 | CC(=NCCN1CCOCC1)C1=C(O)c2ccccc2C1=O | 12.6 µM [rising, single point]
6 | COc1ccc(CCNC(=O)c2cc(-c3cc(C)c(C)cc3O)n[nH]2)cc1OC | 0.794 µM [rising, partial curve]
7 | CN(C)c1ccc(CN2CCCCCC2)cc1 | 0.0631 µM [falling, full curve]
8 | O=C(Nn1cnnc1)c1cc(-c2ccccn2)nc2ccccc12 | 0.158 µM [falling, full curve, poor fit]
9 | CCOC(=O)c1oc2c(CN3CCCCC3C)c(O)ccc2c(=O)c1-c1ccc(OC)c(OC)c1 (centres undefined) | 25.1 µM [rising, single point]
10 | CN1CCN(c2nc(-c3cccc(C#N)c3)nc3ccccc23)CC1 | 6.31 µM [rising, partial curve]
11 | Cc1cccn2c(=O)c3cc(C(=O)N4CCc5ccccc54)n(C)c3nc12 | 0.126 µM [rising, full curve]
12 | COc1ccc(CNc2nc(-c3ccccc3CN(C)C)nc3ccccc23)c(OC)c1 | 20 µM [rising, single point]
13 | CCSc1nnc(NC(=O)CCNS(=O)(=O)c2cc(Br)cnc2N)s1 | 12.6 µM [falling, single point]
14 | O=C1CCCCCC1C1(O)C(=O)Nc2ccc(Br)cc21 (centres undefined) | 1 µM [falling, partial curve]
15 | c1csc(-c2cnc3ccccc3n2)c1 | 12.6 µM [rising, single point]
16 | C=CCn1c(=O)/c(=C/c2ccc(Cl)cc2)s/c1=C(/C#N)c1nnc2n1CCCCC2 | 12.6 µM [rising, single point]
17 | CCC(C)(C)NC(=O)CN(C(=O)c1snc(C(N)=O)c1N)c1ccc2c(c1)OCCO2 | 3.98 µM [rising, partial curve]
18 | c1ccc(N2CCN(CCCOc3ccc4c(c3)OCO4)CC2)cc1 | 12.6 µM [rising, partial curve]
19 | CCOc1ccccc1NC(=O)CSc1nnc(-c2ccccc2Cl)n1Cc1ccco1 | 25.1 µM [falling, single point]
20 | COC(=O)c1cc(CSc2nnc(NC3CCCCC3)s2)oc1C | 0.794 µM [rising, full curve]
21 | NC(=O)c1cc2ccc(O)cc2oc1=Nc1ccccc1 | 12.6 µM [rising, partial curve]
22 | COc1cccc(OCc2nc3ncc(Br)cc3[nH]2)c1 | 12.6 µM [rising, single point]

Row | SMILES | AC50
23 | CCn1c(SCC(=O)N2CCc3ccccc3C2)nc2c1c(=O)n(C)c(=O)n2C | 12.6 µM [rising, single point]
24 | COC(=O)c1ccccc1NC(=O)c1cnn2c(C(F)F)cc(C3CC3)nc12 | 3.16 µM [rising, full curve]
25 | CC(=O)Nc1cccc(-c2nnc(SCc3ccccc3C#N)n2C)c1 | 3.98 µM [rising, single point]
26 | CNc1nc(-c2ccccc2CN(C)C)nc2ccccc12 | 10 µM [rising, partial curve]
27 | CCOc1cc2c(cc1C(C)(C)C)NC(=O)CS2 | 15.8 µM [rising, partial curve, poor fit]
28 | Fc1ccc(Nc2nc(-c3ccoc3)nc3ccccc23)cc1 | 5.01 µM [rising, partial curve]
29 | COCC(C)n1c(SCC(=O)NC(=O)Nc2ccc3c(c2)OCCO3)nc2ccccc2c1=O (centres undefined) | 7.94 µM [rising, partial curve]
30 | CCOC(=O)CC(=O)CSc1nc(C)cc(-c2cccnc2)c1C#N | 12.6 µM [rising, partial curve]
31 | c1ccc(-c2nc(CSc3nnc(-c4cccs4)o3)cs2)cc1 | 3.98 µM [falling, partial curve]
32 | COc1cccc(C(=O)N(CN2CCCC2=O)c2cccc(Cl)c2)c1OC | 25.1 µM [rising, single point]
33 | CCOP(=O)(c1c(F)c(F)c(F)c(F)c1F)C1(O)CCCCC1 (centres undefined) | 2.51 µM [falling, partial curve]
34 | NC(=O)c1ccsc1NC(=O)c1nc(-c2ccccc2)n(-c2ccccc2)n1 | 25.1 µM [falling, single point]
35 | COc1ccc(-n2c(=O)c(-c3cccs3)nc3cnc(Nc4cccc(OC)c4)nc32)cc1 | 1.26 µM [rising, full curve]
36 | O=C(O)c1cc(-c2cccnc2)nn1-c1ccccn1 | 0.00316 µM [falling, full curve, poor fit]
37 | Cc1nc2c(OCc3ccccc3)cccn2c1CC#N | 0.0501 µM [rising, full curve, poor fit]
38 | CCCCOC(=O)Nc1sc2c(c1C(=O)OC)CCC2 | 20 µM [rising, single point]
39 | CCOC(=O)C1CCN(Cc2ccc(OC)c(C)c2OC)CC1 | 0.00398 µM [falling, full curve, poor fit]
40 | O=C(CCC1=NS(=O)(=O)c2ccccc2N1)NC1CCCCCCC1 | 10 µM [falling, single point]
41 | Cc1cccc(NC(=O)C2CCN(S(=O)(=O)c3cccc4cccnc34)CC2)c1 | 10 µM [falling, single point]
42 | COCCOC(=O)C1=C(C)NC(C)=C(C(=O)OC(C)C)[C@@H]1c1cccc([N+](=O)[O-])c1 | 1.58 µM [rising, partial curve]
43 | CCC(C)(NC(=O)CNC(C)=O)C(=O)NC1CCCCC1 (centres undefined) | 20 µM [falling, partial curve]
44 | CCOC(=O)N1CCN(CCC(=O)Nc2ccc(OC(F)(F)F)cc2)CC1 | 0.0316 µM [falling, full curve, poor fit]

Arranged by formula weight (ascending): some entries from above.
Row | SMILES | AC50
7 | CN(C)c1ccc(CN2CCCCCC2)cc1 | 0.0631 µM [falling, full curve]
34 | NC(=O)c1ccsc1NC(=O)c1nc(-c2ccccc2)n(-c2ccccc2)n1 | 25.1 µM [falling, single point]
13 | CCSc1nnc(NC(=O)CCNS(=O)(=O)c2cc(Br)cnc2N)s1 | 12.6 µM [falling, single point]
